Data set [1] deals with T1, PUF domain of Pumilio 1 (wild type) (Homo sapiens) (UniProt Q14671).
T1 sequence (looked up): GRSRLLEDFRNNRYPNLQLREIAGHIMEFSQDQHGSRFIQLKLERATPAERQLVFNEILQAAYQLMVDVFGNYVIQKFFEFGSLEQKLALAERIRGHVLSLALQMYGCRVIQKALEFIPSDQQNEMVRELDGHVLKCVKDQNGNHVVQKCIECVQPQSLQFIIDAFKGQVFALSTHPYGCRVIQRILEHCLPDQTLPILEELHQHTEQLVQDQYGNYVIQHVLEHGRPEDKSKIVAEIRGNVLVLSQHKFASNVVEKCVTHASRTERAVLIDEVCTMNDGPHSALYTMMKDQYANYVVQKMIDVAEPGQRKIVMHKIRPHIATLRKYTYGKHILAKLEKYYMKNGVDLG
In words: one hybrid. The note with it: yeast three-hybrid, protein in cells, protein details: Gal4 AD fusion.

Data set [2] concerns the target PUF-D R1(SRxxE) R3(SYxxR) R4(SYxxE) R5(NRxxQ) R6(SYxxR) (Homo sapiens) (UniProt Q14671). In words: one hybrid. The note with it: yeast three-hybrid, protein in cells, protein details: Gal4 AD fusion.
The target of data set [3] is PUF-E R1(SYxxR) R2(SYxxE) R3(NRxxQ) R5(SRxxE) R7(SYxxR) R8(SYxxE) (Homo sapiens) (UniProt Q14671). In words: one hybrid. The note with it: yeast three-hybrid, protein in cells, protein details: Gal4 AD fusion.
In data set [4] the target is T2, ASRE(6-2/7-2) (artificial (Homo sapiens domains)) (UniProt Q14671).
T2 sequence: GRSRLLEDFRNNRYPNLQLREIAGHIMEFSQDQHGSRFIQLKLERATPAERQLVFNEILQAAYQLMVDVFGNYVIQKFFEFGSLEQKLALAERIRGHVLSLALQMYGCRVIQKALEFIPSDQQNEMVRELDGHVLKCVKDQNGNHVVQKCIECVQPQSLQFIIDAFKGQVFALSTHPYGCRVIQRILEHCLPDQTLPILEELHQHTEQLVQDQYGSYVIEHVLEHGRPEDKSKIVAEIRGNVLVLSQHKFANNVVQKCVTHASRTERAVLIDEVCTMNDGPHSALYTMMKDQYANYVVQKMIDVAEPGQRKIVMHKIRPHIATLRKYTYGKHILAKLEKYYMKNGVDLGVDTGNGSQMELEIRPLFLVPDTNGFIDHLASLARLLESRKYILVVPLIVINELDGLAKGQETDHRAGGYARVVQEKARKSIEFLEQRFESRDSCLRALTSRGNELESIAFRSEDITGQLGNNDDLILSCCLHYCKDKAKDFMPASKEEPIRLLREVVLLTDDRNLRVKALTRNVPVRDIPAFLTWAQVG
In words: enzyme reaction in vitro. The note with it: no cleavage, purified recombinant protein.

Data set [5] concerns the target T3, PUF-R6(SYxxR) N1043S/Q1047R (Homo sapiens) (UniProt Q14671).
T3 sequence (looked up, limits assumed): T1 sequence (looked up) with N216S, Q220R
The data set can be described thus: one hybrid. The note with it: yeast three-hybrid, protein in cells, protein details: Gal4 AD fusion.

Data set [6] has as its target PUF-Eco (two amino acids inserted in repeat 6 between S and R) N1043S/Q1047R plus EcoRI-site two-residue insertion (Homo sapiens) (UniProt Q14671). In words: one hybrid. The following applies: yeast three-hybrid, protein in cells, protein details: Gal4 AD fusion.
For data set [7], the target named is T4, PUF-R6(SHxxR) N1043S/Y1044H/Q1047R (Homo sapiens) (UniProt Q14671).
T4 sequence (looked up, limits assumed): T1 sequence (looked up) with N216S, Y217H, Q220R
The data set can be described thus: one hybrid. The following applies: yeast three-hybrid, protein in cells, protein details: Gal4 AD fusion.

Data set [8] concerns the target T5, PUF-R7(SYxxR) N1080Y/E1083R (Homo sapiens) (UniProt Q14671).
T5 sequence (looked up, limits assumed): T1 sequence (looked up) with N253Y, E256R
The data set can be described thus: one hybrid. The note with it: yeast three-hybrid; G2 RNA; protein in cells; protein details: Gal4 AD fusion.

The target of data set [9] is T6, PUF-R2(SYxxR) N899S/Q903R (Homo sapiens) (UniProt Q14671).
T6 sequence (looked up, limits assumed): T1 sequence (looked up) with N72S, Q76R
In words: one hybrid. The following applies: yeast three-hybrid; protein in cells; protein details: Gal4 AD fusion.

The target of data set [10] is T7, PUF-R7(SNxxR) E1083R (Homo sapiens) (UniProt Q14671).
T7 sequence (looked up, limits assumed): T1 sequence (looked up) with E256R
The data set can be described thus: one hybrid. The following applies: yeast three-hybrid; G2 RNA; protein in cells; protein details: Gal4 AD fusion.

The target of data set [11] is T8, ASRE(6-2/7-2/1-1) (ASRE(671)) (artificial (Homo sapiens domains)) (UniProt Q14671).
T8 sequence: T2 sequence with Q40E
In words: enzyme reaction in vitro. The following applies: more than five-fold lower Vmax than cognate 7u6g1g; purified recombinant protein; variant of NRE (wild-type PUF target, U3).

In data set [12] the target is T9, ASRE(6-2/7-2) with tripeptide linker VDT linker VDTGNGS replaced by VDT (artificial (Homo sapiens domains)) (UniProt Q14671).
T9 sequence: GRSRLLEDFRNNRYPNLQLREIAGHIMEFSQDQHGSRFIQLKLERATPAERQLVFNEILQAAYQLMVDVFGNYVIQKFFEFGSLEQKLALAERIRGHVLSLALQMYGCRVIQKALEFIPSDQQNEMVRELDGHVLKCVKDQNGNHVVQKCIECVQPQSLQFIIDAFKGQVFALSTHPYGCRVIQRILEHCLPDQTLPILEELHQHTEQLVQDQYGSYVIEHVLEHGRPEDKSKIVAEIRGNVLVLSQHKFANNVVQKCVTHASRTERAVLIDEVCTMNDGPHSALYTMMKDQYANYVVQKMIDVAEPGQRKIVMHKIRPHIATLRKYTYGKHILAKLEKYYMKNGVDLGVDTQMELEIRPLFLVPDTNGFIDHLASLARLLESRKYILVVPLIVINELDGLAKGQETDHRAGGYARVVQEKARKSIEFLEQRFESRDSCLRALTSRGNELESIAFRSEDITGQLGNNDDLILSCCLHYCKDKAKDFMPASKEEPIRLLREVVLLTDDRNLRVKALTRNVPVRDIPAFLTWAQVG
In words: enzyme reaction in vitro. The note with it: very low activity with short linker; purified recombinant protein; variant of NRE (wild-type PUF target, U3).

Data set [13] concerns the target T10, ASRE(6-2/7-2) with dodecapeptide linker VDRRMARDGLVH (artificial (Homo sapiens domains)) (UniProt Q14671).
T10 sequence: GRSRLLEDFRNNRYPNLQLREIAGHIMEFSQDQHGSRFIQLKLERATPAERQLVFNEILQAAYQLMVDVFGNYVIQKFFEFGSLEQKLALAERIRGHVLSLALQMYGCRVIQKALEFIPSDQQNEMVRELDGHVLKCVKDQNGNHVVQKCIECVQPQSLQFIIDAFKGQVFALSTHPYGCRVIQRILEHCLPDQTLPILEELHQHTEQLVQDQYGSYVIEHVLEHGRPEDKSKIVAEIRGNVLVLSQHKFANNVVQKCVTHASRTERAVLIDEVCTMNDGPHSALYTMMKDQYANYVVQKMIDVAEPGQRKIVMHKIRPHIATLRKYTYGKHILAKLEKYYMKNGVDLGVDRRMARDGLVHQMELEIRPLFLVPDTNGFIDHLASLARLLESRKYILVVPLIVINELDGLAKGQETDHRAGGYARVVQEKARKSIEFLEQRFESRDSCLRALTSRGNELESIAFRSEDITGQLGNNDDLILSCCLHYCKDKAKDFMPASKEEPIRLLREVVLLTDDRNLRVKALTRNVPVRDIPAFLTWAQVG
The data set can be described thus: enzyme reaction in vitro. The note with it: non-specific products at longer incubation; purified recombinant protein; variant of NRE (wild-type PUF target, U3).

Where [14] appears, read: stronger than WT PUF with its target.
Where [15] appears, read: variant of NRE (wild-type PUF target, U3).

Numbering of substitutions follows the chain as printed. For some assays here: A negative result means that nothing was seen under these conditions. For some assays here: Where a protein sequence is shown, tags need not be part of it. For some assays here: A weaker result is weaker than the reference pair of the same experiment. For some assays here: At least one result comes from cells or an extract, where the contact may be indirect. For some assays here: Construct, isoform or probe ends are uncertain for at least one entry.

CUGCUGCUGCUGCUG [(CUG)5 RNA]: the binding result is “no binding” in data set [1], “binds” in [2] (setting [14]) and “binds” in data set [3] (setting [14]).
On to GUGAUAAG [87621 (8g7u6g2a1g)], for which, in data set [4] (setting [15]), the functional effect result is reported as “not active”.
With UGCAUAUA [C3 RNA], the binding result in data set [5] (strongest with C3, variant of NRE (wild-type PUF target, U3)) is recorded as “binds”; in [6] (setting [15]) it was “no binding”; in data set [1] (setting [15]) it was “no binding”; in data set [7] (setting [15]), “binds”.
Regarding “UGUAUAUA [NRE (wild-type PUF target, U3)]”, in [4], the functional effect result is “not active”. Moreover, the binding result in data set [5] (very weak) is reported as “binds more weakly”; in [8] it was “binds more weakly”; in [6], “no binding”; in data set [1], “binds”; in data set [2] (control RNA), “no binding”; in [3] (control RNA) it was “no binding”. The binding result in data set [9] is recorded as “no binding”; in data set [7] it was “binds more weakly”; in [10] it was “no binding”.
On to UGUAUGUA [3g], for which the functional effect result in data set [4] (setting [15]) was “not active”.
Regarding UGUGUGUG [5g3g1g], the functional effect result in data set [4] (setting [15]) is “not active”.
In the case of UUGAUAUA [7u6g], the functional effect entry in [11] is “less active”; in data set [12], “less active”; in data set [13], “active”.

The values above are taken from patent US20130129701, “Methods and Compositions for Sequence Specific RNA Endonucleases” (published 2013).
